{
  "source": "patent US9039924B2",
  "about": "(priority 2010, dated 2015)",
  "origin": "cited, not measured here",
  "conditions": "cited from earlier work",
  "note": "At least one compound was matched to its structure with a doubt left.",
  "data": [
    {"smiles": "NC(N)=O", "note": "[CO(NH2)2, urea]", "values": [
      {"measurement": "Heat of Solution", "value": 3.59, "unit": "kcal/mol"}
    ]}
  ]
}
